The record followed here is publication PMC5996148.

Values joined by “and” are separate entries in the source; they are usually repeats but may differ in a detail not shown here. Identical values can stand only once. The list shows a part of the results. For some assays here: The exact form of the protein is not confirmed.

Some test systems named below: Uromodulin (human); VAC14 (human); VAMP1 (human); VAMP2 (human); VAMP3 (human); VAMP4 (human); VAMP5 (human); VAPA (human); VAPB (human); VDAC1 (human); VDP (human); VEGFA (human); VENTX (human); VHL (human); VKORC1 (human); VNN3 (human).
Holding throughout (experiment): protein microarray (ProtoArray v5.0), streptavidin-Alexa Fluor 647
Common to all, as to conditions: 3'-biotin; 20 mM Tris (pH 7.5), 5 mM MgCl2, 100 mM KCl, 0.1% Tween-20, A/T-rich and random oligonucleotide blockers; temperature not stated; high values mean tight binding

The test system of assay [1] is V-type proton ATPase 16 kDa proteolipid subunit (human).
The test system of assay [2] is V-type proton ATPase subunit F (human).
Assay [3] relates to V-type proton ATPase subunit e 1 (human).
For the next assay, the target named is T1, VANGL1 (UniProt Q8TAA9).
T1 sequence: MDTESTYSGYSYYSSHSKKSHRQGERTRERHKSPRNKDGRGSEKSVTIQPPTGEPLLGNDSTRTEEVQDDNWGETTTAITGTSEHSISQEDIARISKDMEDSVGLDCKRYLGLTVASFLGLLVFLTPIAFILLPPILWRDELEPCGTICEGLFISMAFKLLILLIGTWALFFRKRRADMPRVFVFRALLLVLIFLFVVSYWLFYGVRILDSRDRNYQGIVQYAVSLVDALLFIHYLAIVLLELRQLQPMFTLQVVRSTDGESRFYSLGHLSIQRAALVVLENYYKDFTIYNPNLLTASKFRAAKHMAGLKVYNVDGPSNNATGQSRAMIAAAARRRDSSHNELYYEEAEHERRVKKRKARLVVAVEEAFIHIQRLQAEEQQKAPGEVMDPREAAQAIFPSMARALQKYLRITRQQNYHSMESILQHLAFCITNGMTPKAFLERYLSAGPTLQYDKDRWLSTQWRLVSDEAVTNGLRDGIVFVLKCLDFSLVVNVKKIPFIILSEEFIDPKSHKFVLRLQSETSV

With “GGGAGGCTGAGGCAGG [G4-1 biotinylated (PQS2)]”, the binding signal in the assay with Uromodulin (human) is -0.331 z-score; in [1], -0.343 z-score; in assay [2], -0.361 z-score; in assay [3], -0.348 z-score; with VAC14 (human), -0.349 z-score; in the assay with VAMP1 (human), -0.275 z-score and -0.321 z-score. For the same sequence, the binding signal in the assay on VAMP2 (human) was -0.321 z-score; in the assay with VAMP3 (human) it was -0.327 z-score and -0.238 z-score; with VAMP4 (human), -0.291 z-score and -0.279 z-score; in the assay on VAMP5 (human) it was -0.34 z-score; with VANGL1, -0.336 z-score; with VAPA (human), -0.326 z-score. The binding signal was -0.333 z-score in the assay with VAPB (human); -0.264 z-score in the assay with VDAC1 (human); -0.29 z-score in the assay on VDP (human); -0.315 z-score in the assay with VEGFA (human); -0.275 z-score with VENTX (human); -0.298 z-score in the assay on VHL (human). Also, the binding signal in the assay on VKORC1 (human) is -0.301 z-score; with VNN3 (human) it was -0.296 z-score.
